PubChem BioAssay AID1671195 – Yale University, 2021

Aim: 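Knockdowns that increase or decrease uptake of fluorescent LDL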 (primary screen)
Cells: human Huh7 hepatoma cells
Reagent: siRNA pool against human genes, 18 nM
Timing: about 2 to 2.5 days of knockdown, then 8 h LDL uptake
Conditions: DiI-labelled LDL at 30 µg/ml for 8 h, in lipoprotein-deficient serum medium
Detection: 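Per-cell DiI-LDL intensity by automated imaging; well means scaled to the plate median and given as a robust z-score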
Scale: robust z-score: higher = more LDL uptake after knockdown
Active means: 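Active when two or more replicates show a robust z-score above 2 or below -2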
This is a random part of about 22,000 reagents tested. In the full data, about 1,510 (6.9%) are marked active. 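Active includes knockdowns raising or lowering LDL uptake; positive z-scores mean more uptake, negative mean less.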 Reagent sequences are not shown.

TUBGCP2 (tubulin gamma complex component 2): robust z-score, replicate 1 = 2.5; robust z-score, replicate 2 = 2.01; robust z-score, replicate 3 = 1.27; outcome = active
ZNF205 (zinc finger protein 205): robust z-score, replicate 1 = 1.28; robust z-score, replicate 2 = 1.14; robust z-score, replicate 3 = 0.477; outcome = inactive
GC (GC vitamin D binding protein): robust z-score, replicate 1 = -0.134; robust z-score, replicate 2 = -0.209; robust z-score, replicate 3 = 0.0738; outcome = inactive
LOC391062 (retired record): robust z-score, replicate 1 = -1.25; robust z-score, replicate 2 = -1.37; robust z-score, replicate 3 = -1.33; outcome = inactive
RHBDF1 (rhomboid 5 homolog 1): robust z-score, replicate 1 = -0.0977; robust z-score, replicate 2 = -0.834; robust z-score, replicate 3 = -0.513; outcome = inactive
IRX2 (iroquois homeobox 2): robust z-score, replicate 1 = -0.0826; robust z-score, replicate 2 = 0.125; robust z-score, replicate 3 = 0.102; outcome = inactive
ARAF (A-Raf proto-oncogene, serine/threonine kinase): robust z-score, replicate 1 = 0.303; robust z-score, replicate 2 = -0.0477; robust z-score, replicate 3 = -0.43; outcome = inactive
RPS20 (ribosomal protein S20): robust z-score, replicate 1 = -1.71; robust z-score, replicate 2 = -0.603; robust z-score, replicate 3 = -1.1; outcome = inactive
WWP2 (WW domain containing E3 ubiquitin protein ligase 2): robust z-score, replicate 1 = -0.552; robust z-score, replicate 2 = -0.338; robust z-score, replicate 3 = -0.362; outcome = inactive
RNF157 (ring finger protein 157): robust z-score, replicate 1 = -0.882; robust z-score, replicate 2 = -1.23; robust z-score, replicate 3 = 0.207; outcome = inactive
SLC6A9: robust z-score, replicate 1 = -0.757; robust z-score, replicate 2 = -0.747; robust z-score, replicate 3 = -0.159; outcome = inactive
LOC440778 (retired record): robust z-score, replicate 1 = 0.774; robust z-score, replicate 2 = 0.54; robust z-score, replicate 3 = 0.56; outcome = inactive

Laid out differently: 2 of the entries above
Target gene,"robust z-score, replicate 1","robust z-score, replicate 2","robust z-score, replicate 3",outcome
RPS20 (ribosomal protein S20),-1.71,-0.603,-1.1,inactive
WWP2 (WW domain containing E3 ubiquitin protein ligase 2),-0.552,-0.338,-0.362,inactive
